# The full ranking holds about 3,200 compounds; the median of “TSA(without NAD+) / Primary screening (TSA) / delta Tm (K)” is about -0.07, and the highest 2% start at about 0.37. This is one part of the list.
# Protein sequences, listed by entry. Tags and fused reporters are not part of them. Residues count along the entry.
# UniProt Q96EB6, 2-747 limits assumed: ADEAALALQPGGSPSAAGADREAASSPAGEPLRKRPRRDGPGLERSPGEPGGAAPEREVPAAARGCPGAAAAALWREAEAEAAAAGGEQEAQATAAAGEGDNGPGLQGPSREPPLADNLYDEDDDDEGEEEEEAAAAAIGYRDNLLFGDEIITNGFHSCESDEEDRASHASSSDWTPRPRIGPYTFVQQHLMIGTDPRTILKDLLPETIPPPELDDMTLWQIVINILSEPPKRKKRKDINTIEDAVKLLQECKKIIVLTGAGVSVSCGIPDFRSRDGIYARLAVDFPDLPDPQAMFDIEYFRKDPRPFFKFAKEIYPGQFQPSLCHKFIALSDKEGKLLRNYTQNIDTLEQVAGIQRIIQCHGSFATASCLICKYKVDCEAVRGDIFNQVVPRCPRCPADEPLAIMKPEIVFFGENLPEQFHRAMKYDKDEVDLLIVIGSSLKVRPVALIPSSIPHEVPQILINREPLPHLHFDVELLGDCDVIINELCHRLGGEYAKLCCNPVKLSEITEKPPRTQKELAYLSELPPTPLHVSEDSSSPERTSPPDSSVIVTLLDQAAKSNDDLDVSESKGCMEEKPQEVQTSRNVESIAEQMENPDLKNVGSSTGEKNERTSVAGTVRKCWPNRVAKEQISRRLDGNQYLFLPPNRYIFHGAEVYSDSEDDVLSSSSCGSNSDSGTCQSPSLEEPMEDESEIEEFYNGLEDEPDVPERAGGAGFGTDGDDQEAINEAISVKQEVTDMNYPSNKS
# Biological target: NAD-dependent deacetylase Sirtuin 1 (human, UniProt Q96EB6)
# Test: primary screen, delta tm
# Design: single well (n = 1)
# Conditions: 10 µM
# Outline: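 Thermal shift of Sirtuin 1 measured without NAD+, compound at 10 µM (n = 1); value is ΔTm, with hits defined as ΔTm > 0.45 K or < −1.5 K. Hits retested at 5, 10, 20 µM (n = 4) and counterscreened on bovine carbonic anhydrase and ABL1 SH2 domain.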
row,Structure (SMILES),TSA(without NAD+) / Primary screening (TSA) / delta Tm (K)
1,c1nc(N2CCN(Cc3csc(-c4ccsc4)n3)CC2)c2c3c(sc2n1)CCCC3,-0.08 K
2,COc1ccc(N(C)S(=O)(=O)c2cccc(C(=O)Nc3cccc(Br)c3)c2)cc1,0.38 K
3,O=C1NC(=O)C(c2ccccc2)(C(F)(F)F)N1 (stereo not shown),-0.12 K
4,COc1ccc(CCSc2nc3ccsc3c(=O)n2C)cc1,-0.04 K
5,COc1ccc(-c2noc(CN3CCN(c4ncnc5scc(-c6ccccc6)c45)CC3)n2)cc1,-0.02 K
6,O=C1CCC(=O)N(c2ccc(C(=O)NC34CC5CC(CC(C5)C3)C4)cc2)N1,0.17 K
7,CN(c1cccnc1)S(=O)(=O)c1cccc(-n2cnnn2)c1,0.02 K
8,Cc1ccc(C23CC4CC(CC(C(=O)OCC(=O)Nc5ccc(S(N)(=O)=O)cc5)(C4)C2)C3)cc1,0.32 K
9,COc1ccc(S(=O)(=O)N2CCOCC2)cc1NC(=O)c1ccccc1SCC(=O)NC12CC3CC(CC(C3)C1)C2,0.02 K
10,Cc1cc(C)cc(C(=O)Nc2cccc(S(=O)(=O)N3CCCCCC3)c2)c1,0.12 K
11,CN(Cc1nc2ccccc2s1)C(=O)CSc1nnc(C2COc3ccccc3O2)o1 (stereo not shown),-0.12 K
12,CN(C)C(=O)CCNc1ncnc2ccsc12,-0.32 K
13,O=C(Cn1cnc2sc3c(c2c1=O)CCCCC3)N1CCc2ccccc21,-0.27 K
14,O=C(Nc1ccc2c(c1)OC1(CCCC1)O2)c1cc(O)nc2ccccc12,0.07 K
15,N#C/C(=C\c1[nH]c2ccccc2c1Cl)C(N)=O,-0.13 K
16,NC(=S)c1ccc(C(=O)NC2CCCc3cc(OC(F)F)ccc32)cc1 (stereo not shown),0.06 K
17,CC(C)Cn1c(SC(C)C(=O)Nc2sc3c(c2C(N)=O)CCC3)nnc1N1CCOCC1 (stereo not shown),-0.08 K
18,CC(NC(=O)c1ccc2c(c1)C(=O)c1ccccc1-2)C1CC2CCC1C2 (stereo not shown),0.18 K
19,CCNC(=O)CSc1nnc(-c2c[nH]c3ccccc23)n1Cc1ccco1,0.05 K
20,NC(=O)Cn1nc(-n2cncn2)ccc1=O,-0.17 K
21,O=C(CCc1c[nH]c2ccccc12)Nc1ccc2nc[nH]c(=O)c2c1,0.26 K
22,COc1ccc(N(C)S(=O)(=O)c2cccc(C(=O)Nc3ccccc3-c3ccccc3)c2)cc1,0.06 K
23,CCOC(=O)C(C)N (stereo not shown),-0.24 K
24,Cc1cc(=O)oc2cc(OCC(=O)N3CCc4ccccc4C3)ccc12,0.03 K
25,Cc1ccc(C(=O)Nc2ccc(NC(=O)NCC3CCCO3)cc2)cn1 (stereo not shown),0.52 K

# An excerpt from above in order of count of non-hydrogen atoms, rising.
row,Structure (SMILES),TSA(without NAD+) / Primary screening (TSA) / delta Tm (K)
14,O=C(Nc1ccc2c(c1)OC1(CCCC1)O2)c1cc(O)nc2ccccc12,0.07 K
2,COc1ccc(N(C)S(=O)(=O)c2cccc(C(=O)Nc3cccc(Br)c3)c2)cc1,0.38 K
8,Cc1ccc(C23CC4CC(CC(C(=O)OCC(=O)Nc5ccc(S(N)(=O)=O)cc5)(C4)C2)C3)cc1,0.32 K

# (continued)

row,Structure (SMILES),TSA(without NAD+) / Primary screening (TSA) / delta Tm (K)
1,O=C1/C(=C/c2ccc(Br)cc2)Oc2cc(O)ccc21,0.36 K
2,COc1cc(CN(C)C(=O)c2cccc(S(=O)(=O)N3CCCC3)c2)ccc1OCc1ccccc1,-0.12 K
3,COc1cccc(/C=C2/COc3ccc(Br)cc3C2=O)c1OC(F)F,-0.08 K
4,O=C(Cc1c[nH]c2ccccc12)Nc1ccc(N2CCN(Cc3ccccc3)CC2)cc1,-0.04 K
5,CCc1ccc(OCC(=O)NNC(=O)Cc2ccc(OC)cc2)cc1,0.07 K
6,CN(c1ccccc1)S(=O)(=O)c1ccc(C(=O)Nc2cccc(S(=O)(=O)N3CCOCC3)c2)cc1,0.02 K
7,CN1CCN(CCc2cccc(NC(=O)C3CC3c3ccc4ccccc4c3)c2)CC1 (stereo not shown),0.16 K
8,COc1ccc(N2CCN(c3ncnc4sc5c(c34)CCC5)CC2)cc1,-0.13 K
9,c1ccc(-c2nc(CSc3nnc(NCc4ccco4)s3)cs2)nc1,0.27 K
10,CNC1CCc2[nH]c3ccc(Cl)cc3c2C1 (stereo not shown),-0.15 K
11,CC(=O)NC1CCCN(c2c(C)c(C)nc3ccccc23)C1 (stereo not shown),-0.28 K
12,CCc1ccc(CNC(=O)Nc2ccncc2C)cc1,-0.38 K
13,COc1cc(NC(C)C(=O)Nc2ccc(C(N)=O)cc2)cc(OC)c1OC (stereo not shown),-0.18 K
14,CCN(CC)CCNC(=O)c1ccc(NC(=O)CC2CCCC2)cc1,0.07 K
15,O=C(CCc1ccccc1)NC1CCN(c2ccc([N+](=O)[O-])c3cccnc23)CC1,-0.28 K
16,CC(C)Cn1c(SCC(=O)Nc2sc3c(c2C(N)=O)CCC3)nnc1N1CCOCC1,-0.02 K
17,CCOc1ccc(C2C(C(=O)c3ccc(F)cc3)=C(O)C(=O)N2CCCN2CCOCC2)cc1OC (stereo not shown),-0.12 K
18,CCOc1ccc(-n2c(SCC(=O)c3[nH]c(C)c(C(C)=O)c3C)nc3ccccc3c2=O)cc1,-0.03 K
19,COc1ccc(NC(=O)c2cccc(OCc3c(C)noc3C)c2)cc1OCc1cn2ccccc2n1,0.08 K
20,Cc1ccc(Nc2nnc(SCC(=O)Nc3cc(C)c(C)cc3[N+](=O)[O-])s2)cc1,-0.03 K
21,COC(C)C(O)C(=O)O (stereo not shown),-0.13 K
22,COc1ccc2c(C=C3C(=O)NC(=O)NC3=O)cccc2c1,-0.37 K
23,O=C(Oc1ccccc1Cc1ccccc1)c1ccc2c(c1)S(=O)(=O)c1ccccc1C2=O,0.02 K
24,Cc1nc(CN2CCN(CC(=O)N(C)Cc3cccs3)CC2)no1,-0.12 K

# Source: article PMC6925144, “A prospective compound screening contest identified broader inhibitors for Sirtuin 1” (Scientific Reports, 2019)
